Measured values from PubChem BioAssay AID493014 (National Center for Advancing Translational Sciences (NCATS), 2011).
The other results are listed elsewhere or left out. The main result of the screen is listed elsewhere. These columns were measured beside it and carry no call. Compounds called inactive in the main read-out are mostly missing here. The note in brackets gives the kind of curve behind each potency; many fits are weak.

Experiment: qHTS Assay to Find Inhibitors of Chronic Active B-Cell Receptor Signaling
Conditions: ABC-DLBCL IkBa-CBG/CBR reporter, luminescence ratio (green luciferase fused to IkBa over red control in TMD8 lymphoma cells), 4 h
Summary of the method: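 Cell line TMD8 (human ABC DLBCL), stably expressing tet-inducible CBG68-IkBa fusion and CBR; IMDM/0.5% FBS; cpd up to 46 uM; dox induction, 4 h, 37C/5% CO2; dual luminescence; green/red ratio; MG132 control.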

[1] = measured here: CBR red luminescence, cell number
[2] = measured here: IkBa-CBG green luminescence

Row | Structure (SMILES) | AC50 [1] | AC50 [2]
1 | O=C(CCCN1C(=O)C2CC=CCC2C1=O)Nc1cccc(F)c1 (stereo unspecified) | 6.31 µM [rising, single point] | –
2 | COc1ccc(C2=Nn3c(nnc3-c3ccccn3)SC2)cc1 | 11.2 µM [falling, partial curve, poor fit] | –
3 | O=C(Cc1ccc(-n2c(=O)c3ccccc3n(Cc3ccccc3Cl)c2=O)cc1)NCC1CCCO1 (stereo unspecified) | – | 2 µM [falling, full curve]
4 | Cc1c(C)n(C)c2ccc(C(=O)NCCc3ccco3)cc12 | 2.82 µM [falling, full curve] | –
5 | CC(=O)c1sc(NC(=O)C2CC(=O)N(Cc3ccccc3)C2)nc1-c1ccccc1 (stereo unspecified) | 7.31 µM [falling, partial curve] | –
6 | COc1ccc(COC(=O)N/N=C(\C)CC(=O)Nc2ccc(Cl)cc2)cc1 | 14.6 µM [falling, partial curve, poor fit] | –
7 | O=C(Nc1ccc(S(=O)(=O)Nc2ncccn2)cc1)c1ccco1 | 20.6 µM [falling, single point] | 20.6 µM [rising, partial curve, poor fit]
8 | Cc1c(NC(=S)Nc2cccc(Cl)c2)c(=O)n(-c2ccccc2)n1C | 6.31 µM [rising, single point] | –
9 | CS(=O)(=O)N1CCc2cc(C(=O)Nc3ccc(Br)cc3)ccc21 | 2 µM [rising, full curve, poor fit] | –
10 | O=C(O)c1cccc(N/N=C/c2cccc3ccccc23)c1 | 7.94 µM [falling, partial curve] | –
11 | CC(=C/C(=O)O)/C=C/c1ccco1 | 18.4 µM [falling, partial curve] | –
12 | O=S(=O)(NC1CCCCC1)c1ccc(N2CCOCC2)nc1 | 11.2 µM [rising, partial curve, poor fit] | –
13 | O=C(NNc1c2ccccc2nc2ccccc12)c1cccc(O)c1 | 23.1 µM [falling, partial curve, poor fit] | –
14 | CC1=CC(C)(C)N2C(=O)C3(C(C#N)=C(N)OC4=C3C(=O)CC(C)(C)C4)c3c(C)c(C)cc1c32 (stereo unspecified) | 3.26 µM [rising, full curve, poor fit] | –
15 | COc1ccc(Cc2nc(-c3ccncc3)no2)cc1 | 7.94 µM [rising, partial curve, poor fit] | –
16 | CCOc1ccc(/C=N/N(C)c2ccccc2)cc1OC | 6.51 µM [rising, full curve, poor fit] | –
17 | Cc1ccc(S(=O)(=O)C(CNS(=O)(=O)c2ccc(F)c(C(F)(F)F)c2)c2ccco2)cc1 (stereo unspecified) | 0.282 µM [falling, full curve] | –
18 | COc1ccc(N2C(=O)c3cc4ccccc4cc3C2=O)cc1 | 12.6 µM [rising, single point] | –
19 | CC(=O)N(/N=C1\Sc2ccccc2C1=O)c1cccc(C)c1 | 1.58 µM [falling, full curve, poor fit] | –
20 | COc1cc(C(=O)N/N=C/c2ccc(OC(=O)c3ccccc3Cl)cc2)ccc1O | 6.31 µM [falling, partial curve] | –
21 | C=CCn1c(=O)c2c(nc3n2CCCN3Cc2ccccc2)n(C)c1=O | 3.98 µM [falling, single point] | –
22 | O=C(Cc1ccccc1)Nc1ccc(N2CCOCC2)cc1 | 31.6 µM [rising, single point] | –

Row | Structure (SMILES) | AC50 [1] | AC50 [2]
23 | O=C(NCCc1ccccc1)c1cnc2ccccn2c1=O | 10 µM [falling, partial curve] | –
24 | Cc1ccc(NS(=O)(=O)c2cccc(C(=O)NCC(c3ccc(F)cc3)N3CCOCC3)c2)cc1 (stereo unspecified) | 29.1 µM [falling, single point] | –
25 | CSc1ccc(/C=C/C(=O)c2ccc(NC(=O)C(C)C)cc2)cc1 | 35.5 µM [falling, single point] | –
26 | O=C(CCc1nc2ccccc2c(=O)[nH]1)Nc1cccc(S(=O)(=O)N2CCCCC2)c1 | 13 µM [falling, partial curve, poor fit] | –
27 | Cc1ccc(C(=O)NCC(=O)Nc2ccc(Cl)cc2)s1 | 6.51 µM [falling, single point] | –
28 | O=[N+]([O-])c1ccc(Cl)c(S(=O)(=O)Nc2ccc(-c3ccc(N4CCOCC4)nn3)cc2)c1 | 32.6 µM [falling, partial curve, poor fit] | –
29 | Cc1cc(=O)oc2cc(OCC(=O)Nc3c(Cl)cccc3C(F)(F)F)ccc12 | 4.47 µM [rising, single point] | –
30 | CSc1ccccc1-c1nc(-c2ccncc2)no1 | 11.2 µM [falling, single point] | –
31 | Cc1cccc(C(=O)OCC(=O)c2c(N)n(CC(C)C)c(=O)n(C)c2=O)c1O | 8.2 µM [rising, partial curve] | –
32 | CC(C)COCc1ccc(O)c2ncccc12 | 28.2 µM [falling, single point] | 35.5 µM [falling, single point]
33 | CCCn1c(NC(=O)c2ccc(C)cc2)nc2ccccc21 | 20.6 µM [rising, partial curve, poor fit] | –
34 | O=C(CSc1ncn[nH]1)OCN1C(=O)c2ccccc2C1=O | 35.5 µM [rising, partial curve, poor fit] | –
35 | Cc1occc1C(=O)Nc1ccc(Br)cc1F | 16.4 µM [falling, single point] | –
36 | CCC(C)Nc1nc(CN2CCOCC2)nc2sc3c(c12)CCC3 (stereo unspecified) | 8.2 µM [rising, partial curve, poor fit] | –
37 | CCc1cc2cc(C(=O)Nc3ccccc3F)sc2s1 | 4.61 µM [falling, partial curve] | –
38 | Cc1ccc(S(=O)(=O)C(CNC(=O)C(=O)NCc2ccc(Cl)cc2)c2ccco2)cc1 (stereo unspecified) | 4.47 µM [rising, partial curve, poor fit] | –
39 | COc1ccc(OCC(=O)Nc2ccc3oc(=O)ccc3c2)cc1 | 5.62 µM [rising, partial curve, poor fit] | –
40 | Fc1ccccc1-c1cc2ncccc2cn1 | 25.9 µM [falling, single point] | –
41 | COc1cccc(NC(=S)Nc2ccc(Br)cc2Cl)c1 | 31.6 µM [rising, single point] | –
42 | COc1ccc(C(CNC(=O)c2ccc(-c3ccccc3Cl)o2)N2CCOCC2)cc1 (stereo unspecified) | 20.6 µM [falling, single point] | –
43 | CCCC(C(=O)NCCC(C)C)N(Cc1ccc(OC)cc1)C(=O)c1snc(C(N)=O)c1N (stereo unspecified) | 35.5 µM [falling, single point] | –
44 | O=C(CCSc1nc(-c2ccc3c(c2)OCO3)cc(C(F)(F)F)n1)NCc1ccco1 | 1.64 µM [rising, partial curve, poor fit] | –

Row | Structure (SMILES) | AC50 [1] | AC50 [2]
45 | Oc1oc(-c2ccccc2Br)nc1/C=N/c1ccccn1 | 7.08 µM [falling, partial curve] | –
46 | CC(NCc1ccccc1OC1CCCC1)c1ccccc1 (stereo unspecified) | 22.4 µM [falling, single point] | –
47 | CCN(C(=O)CCc1nc(-c2ccc(OC)cc2)no1)c1cc(OC)ccc1OC | 29.1 µM [falling, single point] | –
48 | O=S(=O)(O)c1nc2ccccc2n1CCOc1ccccc1 | 17.8 µM [rising, single point] | –
49 | COc1ccc(C(=O)Nc2ccc(S(=O)(=O)N3CCN(C)CC3)cc2)cc1[N+](=O)[O-] | 10 µM [rising, partial curve, poor fit] | –
50 | Cc1ccc2nc3c(c(Nc4cccc(O)c4)c2c1)CCC3 | 10 µM [falling, partial curve, poor fit] | –
51 | COc1ccccc1NS(=O)(=O)c1cc(NC(=O)c2[nH]c(C)c(C(C)=O)c2C)ccc1N1CCOCC1 | – | 6.31 µM [falling, partial curve, poor fit]
52 | COC1CCCCC1Nc1ccc(C)c(C)c1 (stereo unspecified) | 13 µM [rising, partial curve, poor fit] | –
53 | CC(C)c1ccc(C(C)NCCS(=O)(=O)c2ccc(Cl)cc2)cc1 (stereo unspecified) | 11.2 µM [falling, partial curve] | –
54 | O=C(O)c1ccc2c(c1)C(=O)N(CCCCCCCN1C(=O)c3ccc(C(=O)O)cc3C1=O)C2=O | 15.8 µM [falling, partial curve, poor fit] | –
55 | COc1cc(-c2c(C#N)c(N)nc(SCc3ccncc3)c2C#N)cc(OC)c1OC | 35.5 µM [falling, single point] | –
56 | O=C(COc1ccc(Cl)cc1Cl)Nc1ccccn1 | 16.4 µM [falling, partial curve] | –
57 | COc1cccc(NS(=O)(=O)c2cc3c(cc2C)N(C(C)=O)CCO3)c1 | 14.1 µM [rising, partial curve, poor fit] | –
58 | Cc1cc(NC(=O)c2cc(-c3cccs3)on2)no1 | 35.5 µM [falling, single point] | –
59 | Cc1ccc(-c2n[nH]c(S(C)(=O)=O)c2C#N)cc1 | 35.5 µM [rising, single point] | –
60 | CCc1ccc(CN(C)Cc2nc(COc3ccccc3)no2)nc1 | 17.8 µM [rising, single point] | –
61 | CCOc1ccccc1Nc1sc(C(=O)c2ccc(Cl)cc2)c(N)c1S(=O)(=O)c1ccccc1 | 0.708 µM [rising, full curve, poor fit] | –
62 | FC(F)(F)c1ccc(Nc2nnnc3ccccc23)cc1 | 15.8 µM [rising, partial curve, poor fit] | –
63 | CCC(C)Nc1nc2c(c(=O)n(C)c(=O)n2C)n1Cc1ccc(F)cc1 (stereo unspecified) | 14.6 µM [falling, partial curve, poor fit] | –
64 | Cc1ccccc1NC(=O)C(=Cc1ccc(C(=O)O)cc1)C(=O)Nc1ccccc1C | 14.1 µM [falling, partial curve, poor fit] | –

Gathered by group: those above containing four or more nitrogen atoms.
Row | Structure (SMILES) | AC50 [1] | AC50 [2]
2 | COc1ccc(C2=Nn3c(nnc3-c3ccccn3)SC2)cc1 | 11.2 µM [falling, partial curve, poor fit] | –
7 | O=C(Nc1ccc(S(=O)(=O)Nc2ncccn2)cc1)c1ccco1 | 20.6 µM [falling, single point] | 20.6 µM [rising, partial curve, poor fit]
8 | Cc1c(NC(=S)Nc2cccc(Cl)c2)c(=O)n(-c2ccccc2)n1C | 6.31 µM [rising, single point] | –
21 | C=CCn1c(=O)c2c(nc3n2CCCN3Cc2ccccc2)n(C)c1=O | 3.98 µM [falling, single point] | –
26 | O=C(CCc1nc2ccccc2c(=O)[nH]1)Nc1cccc(S(=O)(=O)N2CCCCC2)c1 | 13 µM [falling, partial curve, poor fit] | –
28 | O=[N+]([O-])c1ccc(Cl)c(S(=O)(=O)Nc2ccc(-c3ccc(N4CCOCC4)nn3)cc2)c1 | 32.6 µM [falling, partial curve, poor fit] | –
34 | O=C(CSc1ncn[nH]1)OCN1C(=O)c2ccccc2C1=O | 35.5 µM [rising, partial curve, poor fit] | –
36 | CCC(C)Nc1nc(CN2CCOCC2)nc2sc3c(c12)CCC3 (stereo unspecified) | 8.2 µM [rising, partial curve, poor fit] | –
43 | CCCC(C(=O)NCCC(C)C)N(Cc1ccc(OC)cc1)C(=O)c1snc(C(N)=O)c1N (stereo unspecified) | 35.5 µM [falling, single point] | –
49 | COc1ccc(C(=O)Nc2ccc(S(=O)(=O)N3CCN(C)CC3)cc2)cc1[N+](=O)[O-] | 10 µM [rising, partial curve, poor fit] | –
51 | COc1ccccc1NS(=O)(=O)c1cc(NC(=O)c2[nH]c(C)c(C(C)=O)c2C)ccc1N1CCOCC1 | – | 6.31 µM [falling, partial curve, poor fit]
55 | COc1cc(-c2c(C#N)c(N)nc(SCc3ccncc3)c2C#N)cc(OC)c1OC | 35.5 µM [falling, single point] | –
60 | CCc1ccc(CN(C)Cc2nc(COc3ccccc3)no2)nc1 | 17.8 µM [rising, single point] | –
62 | FC(F)(F)c1ccc(Nc2nnnc3ccccc23)cc1 | 15.8 µM [rising, partial curve, poor fit] | –
63 | CCC(C)Nc1nc2c(c(=O)n(C)c(=O)n2C)n1Cc1ccc(F)cc1 (stereo unspecified) | 14.6 µM [falling, partial curve, poor fit] | –
